{"source": "paper PMC10780275", "about": "“Evaluation of Anti-Trypanosoma cruzi Activity of Chemical Constituents from Baccharis sphenophylla Isolated Using High-Performance Countercurrent Chromatography” (Molecules, 2023)", "tested_on": "T. cruzi amastigote", "experiment": "Activity against intracellular amastigotes of T. cruzi within infected macrophages (Giemsa, light microscope, 48 h)", "type": "cell-based, Trypanosoma cruzi (Y strain)", "settings": "selectivity index = CC50 against NCTC cells / EC50 against amastigotes", "text": "The experimental animals were sourced from the animal breeding facility located at Instituto Adolfo Lutz in São Paulo State, Brazil. Peritoneal macrophages were extracted from female BALB/c mice for intracellular experiments, while male BALB/c mice were utilized to sustain T. cruzi. These animals were provided unlimited access to both water and food, residing in sterilized enclosures within a meticulously regulated environment. All procedures were previously approved by the Animal Ethics Commission of Instituto Adolfo Lutz.\nNCTC cells (clone 929, ATCC) were cultured in RPMI-1640 supplemented with 10% of fetal bovine serum (FBS), at 37 °C within a 5% CO2-humidified incubator. To collect peritoneal macrophages, the abdominal cavity of female BALB/c mice was rinsed with an RPMI-1640 medium, containing 10% FBS. […]\nThe EC50 values for compounds 1–8 against intracellular amastigotes of T. cruzi were determined within infected macrophages. […] Trypomastigotes, previously derived from infected LLC-MK2 cells, underwent washing in an RPMI-1640 medium, were quantified, and were then employed to infect the macrophages at a concentration of 1 × 10^6 trypomastigotes per well. […] At the final stage of the experiment, the chamber slides were fixed using MeOH and stained with Giemsa before being assessed under a light microscope (Thermo EVOS M5000). […]"}
{"smiles": "COc1c(O)cc2oc(-c3ccc(O)cc3)cc(=O)c2c1O", "note": "[Compound 4, Hispidulin]", "values": [{"measurement": "T. cruzi Amastigote SI", "value": "> 12.6"}]}
